# The list shows a part of the results.
# What was measured:
# Test in all cases: glycan array binding signal (z-score within array); higher = stronger binding
# Conditions in all cases: glycan notation: IUPAC condensed, linker removed
# [1] = molecular target: Gal(a1-3)Gal(b1-4)GlcNAc(b1-2)Man
# Summary of the method: (§1)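 Glycan array binding is given as a within-array Z-score, which can be read as non-binding when negative. The arrays, 3228 of them, came from the Consortium for Functional Glycomics database and were retained only where the protein sequence was available. Z-scores were averaged across arrays of the same protein sequence at different concentrations or buffers and across linkers.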
# [2] = molecular target: Gal(a1-3)Gal(b1-4)GlcNAc(b1-2)Man(a1-3)[Gal(a1-3)Gal(b1-4)GlcNAc(b1-2)Man(a1-6)]Man(b1-4)GlcNAc(b1-4)GlcNAc
# Summary of the method: as §1
# [3] = molecular target: Gal(a1-3)Gal(b1-4)GlcNAc(b1-3)GalNAc
# Summary of the method: as §1
# [4] = molecular target: Gal(a1-3)Gal(b1-4)GlcNAc(b1-6)GalNAc
# Summary of the method: as §1
# [5] = molecular target: Gal(a1-3)Gal(b1-4)[Fuc(a1-3)]GlcNAc
# Summary of the method: as §1
# [6] = molecular target: Gal(a1-3)Gal(b1-4)[Fuc(a1-3)]GlcNAc(b1-2)Man(a1-3)[Gal(a1-3)Gal(b1-4)[Fuc(a1-3)]GlcNAc(b1-2)Man(a1-6)]Man(b1-4)GlcNAc(b1-4)GlcNAc
# Summary of the method: as §1
# [7] = molecular target: Gal(a1-3)GalNAc
# Summary of the method: as §1
# [8] = molecular target: Gal(a1-3)[Gal(a1-4)]Gal(b1-4)GlcNAc
# Summary of the method: as §1
# [9] = molecular target: Gal(a1-4)Gal(b1-3)GlcNAc(b1-2)Man(a1-3)[Gal(a1-4)Gal(b1-3)GlcNAc(b1-2)Man(a1-6)]Man(b1-4)GlcNAc(b1-4)GlcNAc
# Summary of the method: as §1
# [10] = molecular target: Gal(a1-4)Gal(b1-4)Glc
# Summary of the method: as §1
# [11] = molecular target: Gal(a1-4)Gal(b1-4)GlcNAc
# Summary of the method: as §1
# [12] = molecular target: Gal(a1-4)Gal(b1-4)GlcNAc(b1-2)Man(a1-3)[Gal(a1-4)Gal(b1-4)GlcNAc(b1-2)Man(a1-6)]Man(b1-4)GlcNAc(b1-4)GlcNAc
# Summary of the method: as §1
# [13] = molecular target: Gal(a1-4)Gal(b1-4)GlcNAc(b1-3)Gal(b1-4)Glc
# Summary of the method: as §1
# [14] = molecular target: Gal(a1-4)GlcNAc
# Summary of the method: as §1
# [15] = molecular target: Gal(a1-6)Glc
# Summary of the method: as §1
# [16] = molecular target: Gal(b1-2)Gal
# Summary of the method: as §1
# [17] = molecular target: Gal(b1-3)Gal
# Summary of the method: as §1
# [18] = molecular target: Gal(b1-3)Gal(b1-4)GlcNAc
# Summary of the method: as §1
# [19] = molecular target: Gal(b1-3)GalNAc
# Summary of the method: as §1
# [20] = molecular target: Gal(b1-3)GalNAc(a1-3)[Fuc(a1-2)]Gal(b1-4)Glc
# Summary of the method: as §1
# [21] = molecular target: Gal(b1-3)GalNAc(a1-3)[Fuc(a1-2)]Gal(b1-4)GlcNAc
# Summary of the method: as §1
# [22] = molecular target: Gal(b1-3)GalNAc(b1-3)Gal
# Summary of the method: as §1
# [23] = molecular target: Gal(b1-3)GalNAc(b1-3)Gal(a1-4)Gal(b1-4)Glc
# Summary of the method: as §1
# [24] = molecular target: Gal(b1-3)GalNAc(b1-4)Gal(b1-4)Glc
# Summary of the method: as §1
# [25] = molecular target: Gal(b1-3)GalNAc(b1-4)[Neu5Ac(a2-3)]Gal(b1-4)Glc
# Summary of the method: as §1
# [26] = molecular target: Gal(b1-3)GlcNAc
# Summary of the method: as §1
# [27] = molecular target: Gal(b1-3)GlcNAc(a1-3)Gal(b1-4)GlcNAc
# Summary of the method: as §1
# [28] = molecular target: Gal(b1-3)GlcNAc(a1-6)Gal(b1-4)GlcNAc
# Summary of the method: as §1
# [29] = molecular target: Gal(b1-3)GlcNAc(b1-2)Man
# Summary of the method: as §1
# [30] = molecular target: Gal(b1-3)GlcNAc(b1-2)Man(a1-3)[Gal(b1-3)GlcNAc(b1-2)Man(a1-6)]Man(b1-4)GlcNAc(b1-4)GlcNAc
# Summary of the method: as §1
# [31] = molecular target: Gal(b1-3)GlcNAc(b1-2)Man(a1-3)[Gal(b1-3)GlcNAc(b1-2)Man(a1-6)]Man(b1-4)GlcNAc(b1-4)[Fuc(a1-6)]GlcNAc
# Summary of the method: as §1
# [32] = molecular target: Gal(b1-3)GlcNAc(b1-2)Man(a1-3)[GlcNAc(b1-4)][Gal(b1-3)GlcNAc(b1-2)Man(a1-6)]Man(b1-4)GlcNAc(b1-4)GlcNAc
# Summary of the method: as §1
# [33] = molecular target: Gal(b1-3)GlcNAc(b1-2)[Gal(b1-3)GlcNAc(b1-6)]Man(a1-6)[Gal(b1-3)GlcNAc(b1-2)Man(a1-3)]Man(b1-4)GlcNAc(b1-4)GlcNAc
# Summary of the method: as §1
# [34] = molecular target: Gal(b1-3)GlcNAc(b1-3)Gal(b1-3)GlcNAc
# Summary of the method: as §1
# [35] = molecular target: Gal(b1-3)GlcNAc(b1-3)Gal(b1-4)Glc
# Summary of the method: as §1
# [36] = molecular target: Gal(b1-3)GlcNAc(b1-3)Gal(b1-4)GlcNAc
# Summary of the method: as §1
# [37] = molecular target: Gal(b1-3)GlcNAc(b1-3)Gal(b1-4)GlcNAc(b1-2)Man(a1-3)[Gal(b1-3)GlcNAc(b1-3)Gal(b1-4)GlcNAc(b1-2)Man(a1-6)]Man(b1-4)GlcNAc(b1-4)GlcNAc
# Summary of the method: as §1
binder,measurement,setting,value
PX9937I-bfa-538-26-538 (Bacteroides fragilis) (protein) DKLDLSPIDYYGSGSYWKTEAQATAYIDGIHKHLRDAAWQHTITFGELRGGRFITGASSDGMGVSNGDIILQNFDETHTGVSKFGDLFGRITNLNLFIARVTDATYLSDEMKNFYLGEVYGLRAFYYFDLYRIYGGVPLRLTADVVEGVIDPNKLYMARSTPKEVMTQIKSDLNKSMEYFGNMNDFDPYKRGKKVYWSKAATECLMGEVYLWTSKVTTGDDVANPADLTIAKTHLESVLNNYNLKMLDDFSQVFNAKNKANDEIIFAIRFLEGEATNSNGTFTYNVGTGSTKNRYQANGEVFGDALDIQNTGNQTYEYNKAVYQNFDDADTRKEATFIASYNKDGKTGELSLYGTHVRKNIGYVNAQGARVYCGDYIFYRLPWVYLTLAEIANMEGDNAAVAKYINLVRKRAYGNAWDETLYAYPETADFTTNELAILHEKDKEFIQEGQRWWDLRRMTLTKGGTPLVFCKEGSLLGDAPILNKSTEAHKLLWPIEKTMLNKDPALEQTPGYK,glycan array binding signal (z-score),[1],-0.574
same,glycan array binding signal (z-score),[2],2.06
same,glycan array binding signal (z-score),[3],-1.27
same,glycan array binding signal (z-score),[4],-0.398
same,glycan array binding signal (z-score),[5],0.196
same,glycan array binding signal (z-score),[6],0.583
same,glycan array binding signal (z-score),[7],-0.393
same,glycan array binding signal (z-score),[8],-0.452
same,glycan array binding signal (z-score),[9],4.73
same,glycan array binding signal (z-score),[10],0.308
same,glycan array binding signal (z-score),[11],-0.8
same,glycan array binding signal (z-score),[12],-0.905
same,glycan array binding signal (z-score),[13],-0.212
same,glycan array binding signal (z-score),[14],0.511
same,glycan array binding signal (z-score),[15],0.008
same,glycan array binding signal (z-score),[16],1.2
same,glycan array binding signal (z-score),[17],0.342
same,glycan array binding signal (z-score),[18],0.649
same,glycan array binding signal (z-score),[19],0.242
same,glycan array binding signal (z-score),[20],-0.698
same,glycan array binding signal (z-score),[21],-0.45
same,glycan array binding signal (z-score),[22],-0.724
same,glycan array binding signal (z-score),[23],1.22
same,glycan array binding signal (z-score),[24],0.698
same,glycan array binding signal (z-score),[25],-0.928
same,glycan array binding signal (z-score),[26],-0.582
same,glycan array binding signal (z-score),[27],-0.328
same,glycan array binding signal (z-score),[28],-0.027
same,glycan array binding signal (z-score),[29],-0.996
same,glycan array binding signal (z-score),[30],0.667
same,glycan array binding signal (z-score),[31],0.601
same,glycan array binding signal (z-score),[32],1.19
same,glycan array binding signal (z-score),[33],-0.863
same,glycan array binding signal (z-score),[34],-0.01
same,glycan array binding signal (z-score),[35],0.888
same,glycan array binding signal (z-score),[36],0.512
same,glycan array binding signal (z-score),[37],-0.068

# Shown tab-delimited: entries from further up.
binder	measurement	setting	value
PX9937I-bfa-538-26-538 (Bacteroides fragilis) (protein) DKLDLSPIDYYGSGSYWKTEAQATAYIDGIHKHLRDAAWQHTITFGELRGGRFITGASSDGMGVSNGDIILQNFDETHTGVSKFGDLFGRITNLNLFIARVTDATYLSDEMKNFYLGEVYGLRAFYYFDLYRIYGGVPLRLTADVVEGVIDPNKLYMARSTPKEVMTQIKSDLNKSMEYFGNMNDFDPYKRGKKVYWSKAATECLMGEVYLWTSKVTTGDDVANPADLTIAKTHLESVLNNYNLKMLDDFSQVFNAKNKANDEIIFAIRFLEGEATNSNGTFTYNVGTGSTKNRYQANGEVFGDALDIQNTGNQTYEYNKAVYQNFDDADTRKEATFIASYNKDGKTGELSLYGTHVRKNIGYVNAQGARVYCGDYIFYRLPWVYLTLAEIANMEGDNAAVAKYINLVRKRAYGNAWDETLYAYPETADFTTNELAILHEKDKEFIQEGQRWWDLRRMTLTKGGTPLVFCKEGSLLGDAPILNKSTEAHKLLWPIEKTMLNKDPALEQTPGYK	glycan array binding signal (z-score)	[20]	-0.698
same	glycan array binding signal (z-score)	[29]	-0.996
